The target of this assay is T1, GFP-tagged CD68 (UniProt P34810).
T1 sequence: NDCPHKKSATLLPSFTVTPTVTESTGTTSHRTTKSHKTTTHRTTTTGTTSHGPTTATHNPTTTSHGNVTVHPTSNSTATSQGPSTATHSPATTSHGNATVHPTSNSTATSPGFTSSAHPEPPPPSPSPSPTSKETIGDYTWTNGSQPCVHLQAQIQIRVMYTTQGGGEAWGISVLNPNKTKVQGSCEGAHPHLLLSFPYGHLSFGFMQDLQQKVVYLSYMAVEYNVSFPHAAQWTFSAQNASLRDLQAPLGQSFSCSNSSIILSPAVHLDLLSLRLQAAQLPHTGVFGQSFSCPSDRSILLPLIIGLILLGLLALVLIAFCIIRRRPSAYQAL
Put plainly: co-IP; HEK293T cotransfected, harvested 48 hours after transfection; lysis in 150 mM NaCl, 50 mM tris-HCl pH 7.5, 1% Triton X-100, 0.1% deoxycholic acid; GFP-Trap beads (anti-GFP) 3 hours at 4°C; Western blot with antibodies against Myc or GFP.

No constants are given. Whether binding was seen depends on the method and setting. Binding seen in cells or lysates may run through a third protein. Where a sequence is shown, tags or fusion partners need not be part of it.

B1: Myc-tagged human TREM2 (TREM2-mychis fusion) (receptor, UniProt Q9NZC2 19-230)
chain: HNTTVFQGVAGQSLQVSCPYDSMKHWGRRKAWCRQLGEKGPCQRVVSTHNLWLLSFLRRWNGSTAITDDTLGGTLTITLRNLQPHDAGLYQCQSLHGSEADTLRKVLVEVLADPLDHRDAGDLWFPGESESFEDAHVEHSISRSLLEGEIPFPPTSILLLLACIFLIKILAASALWAAAWHGQKPGTHPPSELDCGHDPGYQLQTLPGLRDT
With B1, the binding entry was “no binding”.

Values taken from publication PMC10162677.
